Assay results: publication PMC13365561
No constants are given. Whether binding was seen depends on the method and setting. Some entries that bind do so weakly or less than the wild type. Sequences can lack the tags named with a protein.

Key:
Test in all cases: cell aggregation assay; FreeStyle 293-F cells co-transfected with GFP or mCherry and a surface display plasmid, mixed 1:1, shaken 1 h at 37 °C; aggregation index from images
[1] = target: T1, BAI3 T360V (Flag-tagged, expressed on cells) (mouse) (UniProt Q80ZF8)
T1 sequence: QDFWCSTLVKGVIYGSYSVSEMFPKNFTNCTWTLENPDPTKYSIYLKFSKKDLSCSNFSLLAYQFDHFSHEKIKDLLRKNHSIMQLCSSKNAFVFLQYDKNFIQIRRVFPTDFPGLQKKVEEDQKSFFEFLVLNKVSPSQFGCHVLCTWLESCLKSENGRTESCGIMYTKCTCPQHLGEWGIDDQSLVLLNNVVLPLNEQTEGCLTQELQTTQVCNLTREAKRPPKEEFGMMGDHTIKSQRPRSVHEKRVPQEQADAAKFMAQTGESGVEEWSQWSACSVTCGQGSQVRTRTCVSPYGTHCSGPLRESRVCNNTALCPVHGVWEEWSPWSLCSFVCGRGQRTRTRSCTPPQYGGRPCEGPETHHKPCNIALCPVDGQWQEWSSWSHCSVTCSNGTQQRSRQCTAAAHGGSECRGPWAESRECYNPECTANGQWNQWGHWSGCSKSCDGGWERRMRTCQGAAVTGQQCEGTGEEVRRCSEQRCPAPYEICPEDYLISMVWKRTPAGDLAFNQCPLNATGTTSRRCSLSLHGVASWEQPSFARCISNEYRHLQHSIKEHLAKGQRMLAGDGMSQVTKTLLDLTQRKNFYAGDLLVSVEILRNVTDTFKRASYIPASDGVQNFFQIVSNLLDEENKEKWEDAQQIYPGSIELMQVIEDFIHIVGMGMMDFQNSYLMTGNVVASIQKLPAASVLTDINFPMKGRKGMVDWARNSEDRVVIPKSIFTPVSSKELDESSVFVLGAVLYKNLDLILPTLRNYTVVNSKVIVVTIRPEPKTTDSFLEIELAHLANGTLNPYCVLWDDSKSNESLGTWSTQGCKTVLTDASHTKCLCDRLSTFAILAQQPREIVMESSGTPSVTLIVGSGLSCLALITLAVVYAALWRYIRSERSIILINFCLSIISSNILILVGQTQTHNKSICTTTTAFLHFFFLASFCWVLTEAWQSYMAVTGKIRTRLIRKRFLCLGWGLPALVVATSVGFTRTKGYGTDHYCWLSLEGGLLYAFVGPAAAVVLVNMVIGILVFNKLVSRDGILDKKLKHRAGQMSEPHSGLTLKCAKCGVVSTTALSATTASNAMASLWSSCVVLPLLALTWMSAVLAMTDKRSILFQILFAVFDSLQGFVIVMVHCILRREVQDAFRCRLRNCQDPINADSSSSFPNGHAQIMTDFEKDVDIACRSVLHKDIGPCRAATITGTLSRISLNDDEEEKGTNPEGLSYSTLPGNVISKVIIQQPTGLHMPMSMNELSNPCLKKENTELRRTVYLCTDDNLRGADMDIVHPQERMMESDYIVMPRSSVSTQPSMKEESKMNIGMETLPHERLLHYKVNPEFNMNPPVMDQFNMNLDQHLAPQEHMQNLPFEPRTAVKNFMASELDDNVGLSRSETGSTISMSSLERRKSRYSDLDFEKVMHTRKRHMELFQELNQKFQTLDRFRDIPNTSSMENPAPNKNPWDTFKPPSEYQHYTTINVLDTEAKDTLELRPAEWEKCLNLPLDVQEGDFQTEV

[2] = target: T2, BAI3 R366A (Flag-tagged, expressed on cells) (mouse) (UniProt Q80ZF8)
T2 sequence: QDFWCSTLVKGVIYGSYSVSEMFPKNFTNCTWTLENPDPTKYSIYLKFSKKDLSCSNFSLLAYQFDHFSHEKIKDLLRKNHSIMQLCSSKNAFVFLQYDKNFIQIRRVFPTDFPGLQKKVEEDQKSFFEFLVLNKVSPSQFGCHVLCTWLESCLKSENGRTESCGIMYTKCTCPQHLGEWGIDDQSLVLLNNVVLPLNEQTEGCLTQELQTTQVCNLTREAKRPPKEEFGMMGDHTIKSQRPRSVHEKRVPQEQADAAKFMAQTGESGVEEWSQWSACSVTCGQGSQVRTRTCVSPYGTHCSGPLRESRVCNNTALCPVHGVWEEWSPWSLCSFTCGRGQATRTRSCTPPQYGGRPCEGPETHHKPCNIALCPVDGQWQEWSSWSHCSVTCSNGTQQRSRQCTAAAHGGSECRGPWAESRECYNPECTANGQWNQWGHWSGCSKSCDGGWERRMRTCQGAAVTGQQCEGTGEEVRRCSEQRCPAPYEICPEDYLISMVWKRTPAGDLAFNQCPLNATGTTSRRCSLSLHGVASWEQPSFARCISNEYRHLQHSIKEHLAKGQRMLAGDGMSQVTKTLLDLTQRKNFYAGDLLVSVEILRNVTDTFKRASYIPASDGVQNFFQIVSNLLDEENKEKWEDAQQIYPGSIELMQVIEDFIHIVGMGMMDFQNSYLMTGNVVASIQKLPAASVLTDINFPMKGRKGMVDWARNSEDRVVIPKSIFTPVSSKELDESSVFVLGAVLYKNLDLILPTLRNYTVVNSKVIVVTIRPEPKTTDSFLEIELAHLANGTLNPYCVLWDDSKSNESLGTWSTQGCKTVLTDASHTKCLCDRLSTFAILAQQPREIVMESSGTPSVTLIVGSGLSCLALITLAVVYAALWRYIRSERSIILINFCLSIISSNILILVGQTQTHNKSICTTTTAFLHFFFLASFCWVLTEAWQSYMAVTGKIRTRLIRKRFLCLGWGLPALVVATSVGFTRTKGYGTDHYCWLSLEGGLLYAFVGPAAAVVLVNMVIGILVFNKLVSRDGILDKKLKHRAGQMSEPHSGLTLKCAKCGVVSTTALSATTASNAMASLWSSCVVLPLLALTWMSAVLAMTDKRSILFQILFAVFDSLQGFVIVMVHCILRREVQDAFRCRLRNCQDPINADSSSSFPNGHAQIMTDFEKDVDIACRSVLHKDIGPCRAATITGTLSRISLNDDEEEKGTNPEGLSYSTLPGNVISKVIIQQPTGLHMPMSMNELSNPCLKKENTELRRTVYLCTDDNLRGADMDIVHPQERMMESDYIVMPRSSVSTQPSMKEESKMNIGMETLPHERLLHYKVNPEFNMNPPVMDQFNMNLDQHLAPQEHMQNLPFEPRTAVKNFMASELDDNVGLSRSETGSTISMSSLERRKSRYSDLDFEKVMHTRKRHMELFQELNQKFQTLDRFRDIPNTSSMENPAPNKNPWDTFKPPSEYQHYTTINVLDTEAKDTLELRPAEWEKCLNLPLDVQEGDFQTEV

[3] = target: T3, wild-type BAI3 (Flag-tagged, expressed on cells) (mouse) (UniProt Q80ZF8)
T3 sequence: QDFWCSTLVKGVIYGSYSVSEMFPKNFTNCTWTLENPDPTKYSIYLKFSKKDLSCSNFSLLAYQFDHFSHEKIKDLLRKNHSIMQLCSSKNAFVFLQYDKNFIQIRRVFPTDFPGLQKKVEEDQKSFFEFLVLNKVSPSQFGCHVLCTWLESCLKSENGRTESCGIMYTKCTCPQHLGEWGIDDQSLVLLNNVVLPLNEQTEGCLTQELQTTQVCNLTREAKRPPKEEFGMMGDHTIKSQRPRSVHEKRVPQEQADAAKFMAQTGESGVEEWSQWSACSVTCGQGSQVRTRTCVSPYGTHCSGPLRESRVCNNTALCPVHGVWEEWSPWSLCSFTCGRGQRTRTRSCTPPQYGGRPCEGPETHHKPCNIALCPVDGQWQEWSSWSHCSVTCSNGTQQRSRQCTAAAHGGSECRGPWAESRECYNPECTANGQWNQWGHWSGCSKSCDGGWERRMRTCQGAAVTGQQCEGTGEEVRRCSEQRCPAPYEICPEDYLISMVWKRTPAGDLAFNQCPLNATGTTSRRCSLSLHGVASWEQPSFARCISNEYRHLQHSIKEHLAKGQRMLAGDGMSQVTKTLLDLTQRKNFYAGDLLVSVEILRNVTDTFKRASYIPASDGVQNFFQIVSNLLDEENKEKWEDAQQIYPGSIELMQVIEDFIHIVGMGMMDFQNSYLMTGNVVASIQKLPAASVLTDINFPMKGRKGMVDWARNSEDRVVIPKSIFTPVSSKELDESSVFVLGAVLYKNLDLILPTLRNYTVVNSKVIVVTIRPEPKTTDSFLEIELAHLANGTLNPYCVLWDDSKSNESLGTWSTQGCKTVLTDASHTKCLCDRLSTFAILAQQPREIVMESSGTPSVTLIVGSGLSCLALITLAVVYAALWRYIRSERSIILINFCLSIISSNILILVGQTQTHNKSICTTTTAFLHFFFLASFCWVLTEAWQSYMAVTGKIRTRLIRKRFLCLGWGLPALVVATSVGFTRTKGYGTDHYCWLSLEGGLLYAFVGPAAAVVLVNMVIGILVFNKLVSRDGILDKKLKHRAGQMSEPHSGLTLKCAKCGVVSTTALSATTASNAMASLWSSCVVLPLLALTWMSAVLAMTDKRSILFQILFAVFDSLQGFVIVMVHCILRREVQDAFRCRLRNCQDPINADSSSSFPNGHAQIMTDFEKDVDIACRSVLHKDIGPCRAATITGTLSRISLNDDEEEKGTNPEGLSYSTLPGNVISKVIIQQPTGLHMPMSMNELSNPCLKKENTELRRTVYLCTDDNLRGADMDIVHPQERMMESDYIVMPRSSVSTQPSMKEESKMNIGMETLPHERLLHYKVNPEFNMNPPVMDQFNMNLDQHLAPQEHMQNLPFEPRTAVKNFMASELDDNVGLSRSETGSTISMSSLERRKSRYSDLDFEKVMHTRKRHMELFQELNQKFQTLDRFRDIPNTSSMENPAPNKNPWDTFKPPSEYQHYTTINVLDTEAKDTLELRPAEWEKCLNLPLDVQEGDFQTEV

binding [1]: no binding | binding [2]: no binding | binding [3]: binds
B1: RTN4R (expressed on FreeStyle 293-F cells) (receptor, UniProt Q99PI8 27-447)
chain: CPGACVCYNEPKVTTSCPQQGLQAVPTGIPASSQRIFLHGNRISHVPAASFQSCRNLTILWLHSNALARIDAAAFTGLTLLEQLDLSDNAQLHVVDPTTFHGLGHLHTLHLDRCGLRELGPGLFRGLAALQYLYLQDNNLQALPDNTFRDLGNLTHLFLHGNRIPSVPEHAFRGLHSLDRLLLHQNHVARVHPHAFRDLGRLMTLYLFANNLSMLPAEVLMPLRSLQYLRLNDNPWVCDCRARPLWAWLQKFRGSSSEVPCNLPQRLADRDLKRLAASDLEGCAVASGPFRPIQTSQLTDEELLSLPKCCQPDAADKASVLEPGRPASAGNALKGRVPPGDTPPGNGSGPRHINDSPFGTLPSSAEPPLTALRPGGSEPPGLPTTGPRRRPGCSRKNRTRSHCRLGQAGSGASGTGDAEGS
